Source: patent publication US20250312440A1, “CHEMICAL SCREEN OF MODULATORS FOR VACCINE ADJUVANTS” (THE UNIVERSITY OF CHICAGO, priority 2022, published 2025)
Entries after “also recorded” stand apart in the source; their conditions may differ. At least one compound was matched to its structure with a doubt left.

Key:
[1] = test system: anti-OVA IgG antibody; assay: Anti-OVA IgG antibody quantification after OVA prime-boost vaccination with agonist + modulator; assay type: in vivo, mice; settings: OVA 100 μg + flagellin, R848 or CpG, modulator 1.5 μmol i.m.
[2] = test system: human THP-1 monocytes; assay: Cytokine level screening in THP-1 cells (AlphaLISA/AlphaPlex, modulator + agonist); assay type: cell-based; settings: THP-1, 10 μM modulator
Method: THP-1 cells were seeded at 50,000 cells per well in 45 μL of biotin-free RPMI+5% HI-FBS in clear 384 well plates. Following 24h incubation, 50 nL of 10 mM modulator libraries were added by Janus G3 via pintool to experimental wells (cols 3-22) for a final concentration of 10 μM. After 1 hour, 5 μL of agonist was added via a MultiDrop Combi liquid handler (col 3-23). The following day, 5 μL of supernatant was transferred to white low volume ProxiPlates. 10 μL of a prepared acceptor bead (10 μg/mL final conc), biotinylated antibody (1 nM final conc) mixture was added via liquid handler to the cell supernatant. After 1 hr incubation at RT, 5 μL of donor beads (40 μg/mL final conc) were added in the dark. After an additional 1 hr incubation, plates were read on a plate reader with AlphaPlex filters for europium (615 nm) and terbium (545 nm) emission. A separate plate was run each day containing a standard curve of known analyte for interpolation purposes.
Cytokines and chemokines are a broad category of secreted proteins important for adjuvants in regulating adaptive immunity (23). However, excessive production of cytokines by adjuvants can result in direct tissue damage and are correlated with vaccine tolerability (24, 25). To validate the findings of the primary screening results and to explore the impact on downstream immune outcomes, the inventors measured levels of six cytokines and chemokines involved in inflammation and adaptive responses (IL-12p40, IP-10, IL-1b, CCL4, TNF-α, and IFN-b, Table 4). The inventors measured cytokine expression through AlphaLISA, an assay well-suited to high throughput due to its large dynamic range, in situ measurement, and broad range of cytokines. It has been previously used to investigate small molecule biological inhibitors (26-28).
Cell supernatants were collected and cytokines were measured in three duplex measurements (FIG. 11A). Similarly, the inventors optimized standard curve ranges, crosstalk correction factors, incubation times and other factors of the secondary screen (FIGS. 11B-11D). As in the inventors' primary screen, modulators enhance or inhibit cytokine production among all six cytokines and for each agonist independently (FIGS. 4A-4G, FIG. 11E). The distributions within cytokines vary based on the dynamic range and Z-factor obtained for each cytokine and agonist studied (Table 5). High throughput screening utilizes Z-factors as a proxy for statistical reliability of an assay, due to the dynamic range of the positive controls and the inherent cytokines secreted for each agonist, a Z-factor score greater than zero was not obtained for certain agonists/[…] combinations. Since each agonist produced differing levels of cytokine that were sometimes at the limits of standard curve, amending this assay to a high throughout nature was challenging. […] Since the inventors measured fold-change and reduce dimensionality further in analysis, this approach was adequate to compare compounds within the inventors' dataset for down-selection.
After considering categorical and ranked scoring systems, the inventors decided the best representation of modulator performance would need to preserve cytokine changes but do so by normalizing for each cytokine's and agonist's dynamic range (37). Because of the differences in dynamic range of all the inventors' six cytokines, the inventors sought to normalize the data to ensure no distribution would bias the inventors' results. […]

[3] = test system: TNF-α; assay: Plasma cytokine analysis 1 hr after OVA vaccination with agonist + modulator; assay type: in vivo, mice; settings: 1 hr after vaccination
Method: All animal procedures were performed under a protocol approved by the University of Chicago Institutional Animal Care and Use Committee (IACUC). 6-to-8-week-old C57/B6 female mice were purchased from the Jackson laboratory. All vaccinations were administered intramuscularly in the hind leg. Blood was collected from the submandibular vein at time points indicated.
Mice were lightly anesthetized with isoflurane and injected intramuscularly in the hind leg with an injection volume of 50 μL containing antigen, adjuvant, and a DMSO/AddaVax combination. Antigen dose was as follows: OVA (100 μg)). Agonists doses were as follows: Flagellin, 10 μg; R848, 50 μg; CpG, 50 μg. Modulators were added at 1.5 μmol.
Blood was collected from mice at specified time points in 0.2 mL of heparin-coated collection tubes (VWR Scientific). Plasma was isolated via centrifugation 1500×g at 4 C for 15 min. Samples were collected and stored at −80° C. until use. Plasma was analyzed using Bio-Legend's LegendPlex™ Mouse Inflammation Cytokine Panel (13-Plex) according to the manufacturer's protocol. Samples were analyzed using an ACEA NovoCyte Flow Cytometer. Data were analyzed using LEGENDplex™ Data Analysis Software Suite and GraphPad Prism.
The inventors used the vaccine score to select modulators to test in a murine in vivo model. The inventors repeated the traditional prime-boost vaccination schedule as in the inventors' previous preliminary studies using ovalbumin as a model antigen (9, 10). […] The inventors monitored inflammatory cytokine levels one hour following initial injections and monitored antigen specific antibody levels at the indicated timepoints post-boost (FIG. 6A). While AddaVax has inherent adjuvanting properties, the inventors determined its use appropriate because (a) the experiment was testing the modulation of pre-existing adjuvants which would be need to be formulated in their administration, and (b) the inventors could control for inherent alterations to their response via separate adjuvant only (no modulator) controls.

Compound: Cc1ccc(NC(=O)c2ccc(CN3CC[C@H](N(C)C)C3)c(C(F)(F)F)c2)cc1Nc1nccc(-c2cncnc2)n1 [Bafetinib]
- humoral response (serum anti-OVA IgG) [1]: increased the humoral response for all three agonists tested
- TNF-α expression with Pam3 and resiquimod (R848) ([2]; Pam3 and R848): notably high suppression
- IFN-b production, modulator+agonist vs agonist alone ([2]; across agonists): enhancement of IFN-b and IL-12 for several agonists
- IL-12 production, modulator+agonist vs agonist alone ([2]; across agonists): enhancement of IFN-b and IL-12 for several agonists
- IP-10 production, modulator+agonist vs agonist alone ([2]; across agonists): remarkable enhancement of IP-10 across almost all agonists
- TNF-α expression, modulator+agonist vs agonist alone ([2]; all agonists): decreased TNF-α expression across all agonists
- systemic inflammatory cytokine modulation ([3]; flagellin, R848, CpG, modulator 1.5 μmol): did not, however, observe significant cytokine modulation; also recorded: partially downregulated inflammatory cytokines depending on the adjuvant

Compound: N#C/C(=C(\N)Sc1ccc(N)cc1)c1ccccc1C(F)(F)F [compound 5]
- inflammation (systemic TNF-α) for R848 ([3]; R848 50 μg + modulator 1.5 μmol): reduced the inflammation to half the original formulation
- systemic cytokines (TNF-α) for flagellin ([3]; flagellin 10 μg + modulator 1.5 μmol): large decrease
